Reference: the supplement of paper PMC4604168 (melanoma cell lines)
The other results are listed elsewhere or left out. Many values rest on one well or one pass, so single values are uncertain.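 Imaging used 1,536-well plates; nuclei positive for cleaved PARP by antibody were divided by total DNA-stained nuclei to yield the apoptosis fraction. Doses for screening kept most cells viable, and cell lines differ markedly in resting and induced cleaved-PARP levels.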

Columns and labels:
Experiment in all cases: cleaved PARP positive nuclei fraction relative to DMSO control; melanoma cells; higher = more apoptosis
Details in all cases: library dose: low library concentration; 72 h
[1] = tested on: WM115
[2] = tested on: WM1716
[3] = tested on: WM1745
[4] = tested on: WM3526
[5] = tested on: WM3619
[6] = tested on: WM451Lu

CC(=O)O[C@@]12CO[C@@H]1C[C@H](O)[C@@]1(C)C(=O)[C@H](O)C3=C(C)[C@@H](OC(=O)[C@H](O)[C@@H](NC(=O)OC(C)(C)C)c4ccccc4)C[C@@](O)([C@@H](OC(=O)c4ccccc4)[C@H]21)C3(C)C [Docetaxel] + Nc1nc(F)nc2c1ncn2[C@@H]1O[C@H](CO)[C@@H](O)[C@@H]1O [fludarabine] (first compound 0.0001 µM, partner dose 0.2 µM)
cleaved PARP positive nuclei fraction [1]: 455%
cleaved PARP positive nuclei fraction [2]: 217%
cleaved PARP positive nuclei fraction [3]: 219%
cleaved PARP positive nuclei fraction [4]: 336%
cleaved PARP positive nuclei fraction [5]: 155%
cleaved PARP positive nuclei fraction [6]: 105%

CN(c1ncccc1CNc1nc(Nc2ccc3c(c2)CC(=O)N3)ncc1C(F)(F)F)S(C)(=O)=O + CN(C)S(=O)(=O)c1ccc2c(c1)/C(=C/c1cc3c([nH]1)CCCC3)C(=O)N2 [SU6656] (first compound 0.08 µM, partner dose 0.4 µM)
cleaved PARP positive nuclei fraction [1]: 394%
cleaved PARP positive nuclei fraction [2]: 61.7%
cleaved PARP positive nuclei fraction [3]: 112%
cleaved PARP positive nuclei fraction [4]: 48.2%
cleaved PARP positive nuclei fraction [5]: 98.5%
cleaved PARP positive nuclei fraction [6]: 39.2%

CCCCCCCCc1ccc(CCC(N)(CO)CO)cc1 [fingolimod] + O=C(Nc1ccccc1)c1cc([N+](=O)[O-])ccc1Cl [GW9662] (first compound 2 µM, partner dose 2 µM)
cleaved PARP positive nuclei fraction [1]: 53.6%
cleaved PARP positive nuclei fraction [2]: 143%
cleaved PARP positive nuclei fraction [3]: 126%
cleaved PARP positive nuclei fraction [4]: 211%
cleaved PARP positive nuclei fraction [5]: 115%
cleaved PARP positive nuclei fraction [6]: 45.5%

C[C@]1(O)C[C@@H](c2nc(-c3ccc4ccc(-c5ccccc5)nc4c3)c3c(N)nccn32)C1 + NC1(c2ccc(-c3nc4ccn5c(=O)[nH]nc5c4cc3-c3ccccc3)cc2)CCC1 [MK2206] (first compound 0.4 µM, partner dose 0.4 µM)
cleaved PARP positive nuclei fraction [1]: 140%
cleaved PARP positive nuclei fraction [2]: 68.1%
cleaved PARP positive nuclei fraction [3]: 104%
cleaved PARP positive nuclei fraction [4]: 57.6%
cleaved PARP positive nuclei fraction [5]: 94.3%
cleaved PARP positive nuclei fraction [6]: 124%

NC1(c2ccc(-c3nc4ccn5c(=O)[nH]nc5c4cc3-c3ccccc3)cc2)CCC1 + Cc1cc(N2CCOCC2)cc2[nH]c(-c3c(NC[C@@H](O)c4cccc(Cl)c4)cc[nH]c3=O)nc12 [BMS536924] (first compound 0.4 µM, partner dose 0.2 µM)
cleaved PARP positive nuclei fraction [1]: 296%
cleaved PARP positive nuclei fraction [2]: 390%
cleaved PARP positive nuclei fraction [3]: 116%
cleaved PARP positive nuclei fraction [4]: 87.2%
cleaved PARP positive nuclei fraction [5]: 96%
cleaved PARP positive nuclei fraction [6]: 128%

NC(=O)c1ccc(N(C(N)=O)c2c(F)cccc2F)nc1-c1ccc(F)cc1F + O=C(O)C(=O)Nc1sc2c(c1C(=O)O)CCNC2 [TCS401] (first compound 0.4 µM, partner dose 1.66667 µM)
cleaved PARP positive nuclei fraction [1]: 59.8%
cleaved PARP positive nuclei fraction [2]: 53.3%
cleaved PARP positive nuclei fraction [3]: 103%
cleaved PARP positive nuclei fraction [4]: 68.9%
cleaved PARP positive nuclei fraction [5]: 94%
cleaved PARP positive nuclei fraction [6]: 142%

CS(=O)(=O)c1ccc(C(=O)Nc2ccc(Cl)c(-c3ccccn3)c2)c(Cl)c1 [vismodegib] + Cn1cncc1[C@@](N)(c1ccc(Cl)cc1)c1ccc2c(c1)c(-c1cccc(Cl)c1)cc(=O)n2C [tipifarnib] (first compound 1 µM, partner dose 0.01 µM)
cleaved PARP positive nuclei fraction [1]: 109%
cleaved PARP positive nuclei fraction [2]: 82.6%
cleaved PARP positive nuclei fraction [3]: 98.7%
cleaved PARP positive nuclei fraction [4]: 132%
cleaved PARP positive nuclei fraction [5]: 109%
cleaved PARP positive nuclei fraction [6]: 82.8%

CC1(C)CCC(c2ccc(Cl)cc2)=C(CN2CCN(c3ccc(C(=O)NS(=O)(=O)c4ccc(N[C@H](CCN5CCOCC5)CSc5ccccc5)c(S(=O)(=O)C(F)(F)F)c4)cc3)CC2)C1 + Cc1nc(Nc2ncc(C(=O)Nc3c(C)cccc3Cl)s2)cc(N2CCN(CCO)CC2)n1 [dasatanib] (first compound 0.4 µM, partner dose 0.004 µM)
cleaved PARP positive nuclei fraction [1]: 384%
cleaved PARP positive nuclei fraction [2]: 69.8%
cleaved PARP positive nuclei fraction [3]: 2030%
cleaved PARP positive nuclei fraction [4]: 75.3%
cleaved PARP positive nuclei fraction [5]: 128%
cleaved PARP positive nuclei fraction [6]: 253%

CS(=O)(=O)c1ccc(C(=O)Nc2ccc(Cl)c(-c3ccccn3)c2)c(Cl)c1 [vismodegib] + COc1ccc(COc2ccc(Cc3cnc(N)nc3N)cc2OC)cc1 [GW2580] (first compound 1 µM, partner dose 1 µM)
cleaved PARP positive nuclei fraction [1]: 66.5%
cleaved PARP positive nuclei fraction [2]: 58.2%
cleaved PARP positive nuclei fraction [3]: 94.8%
cleaved PARP positive nuclei fraction [4]: 297%
cleaved PARP positive nuclei fraction [5]: 70.4%
cleaved PARP positive nuclei fraction [6]: 73%

CC(=O)O[C@@]12CO[C@@H]1C[C@H](O)[C@@]1(C)C(=O)[C@H](O)C3=C(C)[C@@H](OC(=O)[C@H](O)[C@@H](NC(=O)OC(C)(C)C)c4ccccc4)C[C@@](O)([C@@H](OC(=O)c4ccccc4)[C@H]21)C3(C)C [Docetaxel] + COc1ccc(COc2ccc(Cc3cnc(N)nc3N)cc2OC)cc1 [GW2580] (first compound 0.0001 µM, partner dose 1 µM)
cleaved PARP positive nuclei fraction [1]: 121%
cleaved PARP positive nuclei fraction [2]: 216%
cleaved PARP positive nuclei fraction [3]: 335%
cleaved PARP positive nuclei fraction [4]: 293%
cleaved PARP positive nuclei fraction [5]: 215%
cleaved PARP positive nuclei fraction [6]: 170%

NC1(c2ccc(-c3nc4ccn5c(=O)[nH]nc5c4cc3-c3ccccc3)cc2)CCC1 + C=C(c1ccc(C(=O)O)cc1)c1cc2c(cc1C)C(C)(C)CCC2(C)C [Bexarotene] (first compound 0.4 µM, partner dose 2 µM)
cleaved PARP positive nuclei fraction [1]: 120%
cleaved PARP positive nuclei fraction [2]: 93.1%
cleaved PARP positive nuclei fraction [3]: 102%
cleaved PARP positive nuclei fraction [4]: 123%
cleaved PARP positive nuclei fraction [5]: 91.2%
cleaved PARP positive nuclei fraction [6]: 153%

CCCCCCCCc1ccc(CCC(N)(CO)CO)cc1 [fingolimod] + COc1ccc(-c2ccc3c(N4CCOCC4)nc(N4C[C@@H](C)O[C@@H](C)C4)nc3n2)cc1CO [KU0063794] (first compound 2 µM, partner dose 0.02 µM)
cleaved PARP positive nuclei fraction [1]: 110%
cleaved PARP positive nuclei fraction [2]: 192%
cleaved PARP positive nuclei fraction [3]: 158%
cleaved PARP positive nuclei fraction [4]: 167%
cleaved PARP positive nuclei fraction [5]: 134%
cleaved PARP positive nuclei fraction [6]: 34.7%
